{
  "source": "paper PMC9102066",
  "about": "“Cloning and Functional Characterization of Dog OCT1 and OCT2: Another Step in Exploring Species Differences in Organic Cation Transporters” (International Journal of Molecular Sciences, 2022)",
  "key": {"dog OCT1": {"test_system": "dog OCT1", "test": "Uptake in HEK293 cells stably overexpressing dog OCT1", "details": "for CLint ± SEM, dOCT1: intrinsic clearance = vmax divided by KM for each experiment", "method": "The total uptake is shown for the overexpressing and control cells (left hand side). OCT1-mediated uptake (right hand side) was calculated by subtracting the uptake of control cells (pcDNA5) from the uptake of OCT1-overexpressing cells. The means and standard errors of the means are shown for at least three independent experiments.\nFor generation and characterization, see the Supplementary Methods, Figure S7, and [29, 47]. Cells were cultured in Dulbecco’s Modified Eagle’s Medium (DMEM) supplemented with 10% FBS, 100 U/mL penicillin, and 100 µg/mL streptomycin at 37 °C and 5% CO2. Cells were passaged twice a week.\nAt 48 h prior to the experiment, 6 × 10^5 cells were seeded per well in 12-well plates pre-coated with poly-D-lysine.\nCellular uptake experiments were performed at 37 °C and pH 7.4 using Hanks’ Buffered Salt Solution (HBSS) supplemented with 10 mM HEPES (referred to as HBSS+ in the following). Cells were washed with 1 mL pre-warmed (37 °C) HBSS+ and uptake was initiated by adding 400 µL of pre-warmed HBSS+ containing the substrate. Uptake was allowed for exactly 2 min and stopped by adding 2 mL ice-cold HBSS+. Cells were washed twice with 2 mL ice-cold HBSS+ then lysed with 80% acetonitrile supplemented with internal standard. The intracellularly accumulated substrate concentrations were measured using LC-MS/MS as described in the following and normalized to the amount of total protein in the samples as measured using the bicinchoninic acid assay.\nIntracellular substrate concentrations were quantified using LC-MS/MS. […] The pellet was reconstituted with 200 µL 0.1% formic acid and between 5 and 10 µL was injected into the LC-MS/MS system (Table S2).\nAn API4000 QTRAP tandem mass spectrometer with ESI interface (AB SCIEX, Darmstadt, Germany) coupled to a Shimadzu Nexera X2 UHPLC system with LC 30AD pumps and SiL 30AC autosampler (Shimadzu, Duisburg, Germany) was used for analysis.\nIntrinsic clearance CLint was calculated by dividing vmax by KM for each experiment. Kinetic parameters were compared between OCT1 orthologs using an ANOVA followed by Tukey’s honestly significant difference post hoc comparisons in SPSS Statistics version 28 (SPSS Inc., IBM, Chicago, IL, USA)."}, "mouse OCT1": {"target": "T1, mouse OCT1 (Mus musculus, UniProt O08966)", "T1 construct": "expressed in transfected cells; host or cells: HEK293 (Flp-In system)", "T1 sequence (O08966 1-556)": "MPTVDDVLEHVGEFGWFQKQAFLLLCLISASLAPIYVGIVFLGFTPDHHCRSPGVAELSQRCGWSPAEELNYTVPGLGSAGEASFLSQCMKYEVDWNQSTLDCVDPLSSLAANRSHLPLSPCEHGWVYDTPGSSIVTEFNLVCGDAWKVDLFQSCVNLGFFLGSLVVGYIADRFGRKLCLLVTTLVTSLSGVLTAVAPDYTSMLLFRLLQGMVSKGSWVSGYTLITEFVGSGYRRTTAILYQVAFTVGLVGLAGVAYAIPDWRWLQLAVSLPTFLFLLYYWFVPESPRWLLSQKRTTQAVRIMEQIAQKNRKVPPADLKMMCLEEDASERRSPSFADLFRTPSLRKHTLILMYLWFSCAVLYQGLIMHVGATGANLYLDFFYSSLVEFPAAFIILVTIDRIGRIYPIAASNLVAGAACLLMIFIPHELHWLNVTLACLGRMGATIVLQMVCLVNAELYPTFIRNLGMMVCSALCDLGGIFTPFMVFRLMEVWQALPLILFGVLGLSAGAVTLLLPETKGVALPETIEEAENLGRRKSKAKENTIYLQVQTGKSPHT", "test": "Uptake in HEK293 cells stably overexpressing mouse OCT1", "type": "in vitro ADME", "source_text": "(§1) Cells were passaged twice a week.\n(§2) Intracellular substrate concentrations were quantified using LC-MS/MS."}, "human OCT1": {"target": "T2, human OCT1 (Homo sapiens, UniProt O15245)", "T2 construct": "expressed in transfected cells; host or cells: HEK293 (Flp-In system)", "T2 sequence (O15245 1-554)": "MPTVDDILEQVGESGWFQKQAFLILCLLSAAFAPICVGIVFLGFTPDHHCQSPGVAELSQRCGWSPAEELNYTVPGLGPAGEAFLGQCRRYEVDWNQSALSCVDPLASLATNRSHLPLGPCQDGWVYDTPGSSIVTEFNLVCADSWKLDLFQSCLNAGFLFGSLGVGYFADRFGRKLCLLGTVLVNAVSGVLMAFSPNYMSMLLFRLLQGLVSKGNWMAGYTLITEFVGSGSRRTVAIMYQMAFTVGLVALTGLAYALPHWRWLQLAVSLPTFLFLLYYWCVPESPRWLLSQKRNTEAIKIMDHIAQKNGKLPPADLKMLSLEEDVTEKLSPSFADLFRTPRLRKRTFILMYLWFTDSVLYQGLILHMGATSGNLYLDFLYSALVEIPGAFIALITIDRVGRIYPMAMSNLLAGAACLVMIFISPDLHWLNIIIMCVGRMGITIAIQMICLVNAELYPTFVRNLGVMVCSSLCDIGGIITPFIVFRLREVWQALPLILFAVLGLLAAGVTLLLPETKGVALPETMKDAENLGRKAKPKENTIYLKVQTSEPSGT", "test": "Uptake in HEK293 cells stably overexpressing human OCT1", "type": "in vitro ADME", "details": "intrinsic clearance = vmax divided by KM for each experiment", "source_text": "as §1, §2"}, "dog OCT2": {"test_system": "dog OCT2", "test": "Uptake in HEK293 cells stably overexpressing dog OCT2", "type": "in vitro ADME", "source_text": "Figure 6 Comparative characterization of substrate uptake between dog and human OCT2 orthologs.\nas §1, §2"}, "human OCT2": {"target": "T3, human OCT2 (Homo sapiens, UniProt O15244)", "T3 construct": "expressed in transfected cells; host or cells: HEK293 (Flp-In system)", "T3 sequence (O15244 1-555)": "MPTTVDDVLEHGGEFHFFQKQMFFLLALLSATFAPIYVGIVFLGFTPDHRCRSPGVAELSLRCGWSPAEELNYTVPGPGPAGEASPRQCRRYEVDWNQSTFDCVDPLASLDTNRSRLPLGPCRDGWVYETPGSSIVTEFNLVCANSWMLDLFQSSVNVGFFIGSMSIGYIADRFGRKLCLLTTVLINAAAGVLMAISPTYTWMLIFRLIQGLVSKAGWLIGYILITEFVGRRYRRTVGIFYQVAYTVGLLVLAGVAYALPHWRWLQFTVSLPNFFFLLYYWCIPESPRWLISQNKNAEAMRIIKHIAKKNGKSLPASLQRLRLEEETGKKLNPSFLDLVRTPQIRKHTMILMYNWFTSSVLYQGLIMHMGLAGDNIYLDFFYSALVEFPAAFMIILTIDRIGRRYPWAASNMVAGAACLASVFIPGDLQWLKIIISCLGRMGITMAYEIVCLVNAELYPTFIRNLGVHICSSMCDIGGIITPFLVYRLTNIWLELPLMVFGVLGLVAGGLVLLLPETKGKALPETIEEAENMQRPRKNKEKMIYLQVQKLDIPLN", "test": "Uptake in HEK293 cells stably overexpressing human OCT2", "type": "in vitro ADME", "details": "intrinsic clearance = vmax divided by KM for each experiment", "source_text": "as §1, §2"}, "[1]": {"details": "OCT1-mediated uptake, HEK293, 2 min, 37 °C, pH 7.4, control cells subtracted"}, "[2]": {"details": "intrinsic clearance = vmax divided by KM for each experiment"}},
  "data": [
    {"smiles": "CC(C)[N+]1(C)[C@@H]2CC[C@H]1C[C@@H](OC(=O)C(CO)c1ccccc1)C2", "note": "(some centres unmarked) [Ipratropium, Ipratropium bromide]", "values": [
      {"measurement": "vmax ± SEM, dOCT1", "setting": "dog OCT1; [1]", "result": "113 ± 1.43 pmol × min^−1 × mg Protein^−1"},
      {"measurement": "Km at 2 min", "setting": "dog OCT1; dog, pH 7.4", "result": "1.02 ± 0.2", "unit": "µM"},
      {"measurement": "CLint ± SEM, dOCT1", "setting": "dog OCT1", "result": "122 ± 28.1 µL × min^−1 × mg Protein^−1"},
      {"measurement": "CLint ± SEM, dOCT1", "setting": "dog OCT1; listed as ipratropium", "result": "80.5 µL × min^−1 × mg Protein^−1"},
      {"measurement": "vmax ± SEM, mOCT1", "setting": "mouse OCT1; [1]", "result": "309 ± 18.8 pmol × min^−1 × mg Protein^−1"},
      {"measurement": "CLint ± SEM, mOCT1", "setting": "mouse OCT1; [2]", "result": "83.6 ± 10.4 µL × min^−1 × mg Protein^−1"},
      {"measurement": "CLint ± SEM, hOCT1", "setting": "human OCT1", "result": "75.7 ± 6.33 µL × min^−1 × mg Protein^−1"},
      {"measurement": "vmax ± SEM, dOCT2", "setting": "dog OCT2; OCT2-mediated uptake, HEK293, 2 min, 37 °C, pH 7.4, control cells subtracted", "result": "93.2 ± 12.6 pmol × min^−1 × mg Protein^−1"},
      {"measurement": "Km at 2 min", "setting": "dog OCT2; dog, pH 7.4, OCT2-mediated uptake, HEK293, 2 min, Michaelis–Menten fit, read-out: KM ± SEM, dOCT2", "result": "0.35 ± 0.02", "unit": "µM"},
      {"measurement": "CLint ± SEM, dOCT2", "setting": "dog OCT2; [2]", "result": "265 ± 35.3 µL × min^−1 × mg Protein^−1"},
      {"measurement": "CLint ± SEM, hOCT2", "setting": "human OCT2", "result": "477 ± 31.9 µL × min^−1 × mg Protein^−1"}
    ]}
  ]
}
